Reference: the supplement of paper PMC10849652
The other results are listed elsewhere or left out.

Protein sequences, listed by entry. Tags and fused reporters are not part of them. Lines headed by an entry give the natural chain unless they say otherwise; changes in a name come on top.
UniProt Q9BRJ7: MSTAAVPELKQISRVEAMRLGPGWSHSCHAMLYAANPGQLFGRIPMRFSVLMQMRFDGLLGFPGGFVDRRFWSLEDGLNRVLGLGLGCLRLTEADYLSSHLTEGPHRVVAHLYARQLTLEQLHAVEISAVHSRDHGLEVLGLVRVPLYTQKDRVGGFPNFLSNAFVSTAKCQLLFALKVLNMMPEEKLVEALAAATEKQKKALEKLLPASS
UniProt A8MXV4: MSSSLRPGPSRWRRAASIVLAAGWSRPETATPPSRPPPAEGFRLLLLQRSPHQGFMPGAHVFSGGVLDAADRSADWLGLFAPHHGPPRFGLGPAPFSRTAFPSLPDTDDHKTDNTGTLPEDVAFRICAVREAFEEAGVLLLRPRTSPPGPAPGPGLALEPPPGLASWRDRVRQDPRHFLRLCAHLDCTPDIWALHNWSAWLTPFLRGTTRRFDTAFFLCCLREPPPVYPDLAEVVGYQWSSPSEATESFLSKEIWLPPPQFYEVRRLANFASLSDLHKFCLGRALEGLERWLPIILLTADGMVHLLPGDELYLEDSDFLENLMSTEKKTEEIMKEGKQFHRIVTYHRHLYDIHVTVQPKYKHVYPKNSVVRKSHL
UniProt Q86UY8: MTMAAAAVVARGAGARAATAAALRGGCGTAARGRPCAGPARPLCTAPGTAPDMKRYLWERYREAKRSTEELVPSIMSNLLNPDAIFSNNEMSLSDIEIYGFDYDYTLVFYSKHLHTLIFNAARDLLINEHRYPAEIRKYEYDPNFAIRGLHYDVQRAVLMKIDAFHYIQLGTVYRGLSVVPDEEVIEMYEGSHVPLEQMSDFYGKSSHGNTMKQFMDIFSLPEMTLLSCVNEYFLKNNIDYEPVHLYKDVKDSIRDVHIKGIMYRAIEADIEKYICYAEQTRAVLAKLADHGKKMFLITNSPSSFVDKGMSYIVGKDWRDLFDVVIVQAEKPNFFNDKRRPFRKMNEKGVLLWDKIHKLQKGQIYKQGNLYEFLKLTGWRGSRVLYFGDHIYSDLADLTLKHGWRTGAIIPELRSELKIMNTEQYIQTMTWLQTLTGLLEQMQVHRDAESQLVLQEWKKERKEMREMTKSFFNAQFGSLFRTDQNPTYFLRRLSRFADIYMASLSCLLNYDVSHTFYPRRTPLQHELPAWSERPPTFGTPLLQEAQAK
UniProt Q8NFH4: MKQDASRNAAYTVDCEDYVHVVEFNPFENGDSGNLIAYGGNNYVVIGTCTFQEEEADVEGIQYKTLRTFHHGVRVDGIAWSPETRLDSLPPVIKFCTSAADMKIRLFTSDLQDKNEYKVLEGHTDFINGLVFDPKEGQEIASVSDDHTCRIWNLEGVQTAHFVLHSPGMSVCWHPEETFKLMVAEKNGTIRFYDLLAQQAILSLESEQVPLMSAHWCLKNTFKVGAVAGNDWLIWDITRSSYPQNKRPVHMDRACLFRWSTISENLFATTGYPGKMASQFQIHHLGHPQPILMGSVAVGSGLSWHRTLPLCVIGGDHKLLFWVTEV
UniProt P49790, whole entry, looked up: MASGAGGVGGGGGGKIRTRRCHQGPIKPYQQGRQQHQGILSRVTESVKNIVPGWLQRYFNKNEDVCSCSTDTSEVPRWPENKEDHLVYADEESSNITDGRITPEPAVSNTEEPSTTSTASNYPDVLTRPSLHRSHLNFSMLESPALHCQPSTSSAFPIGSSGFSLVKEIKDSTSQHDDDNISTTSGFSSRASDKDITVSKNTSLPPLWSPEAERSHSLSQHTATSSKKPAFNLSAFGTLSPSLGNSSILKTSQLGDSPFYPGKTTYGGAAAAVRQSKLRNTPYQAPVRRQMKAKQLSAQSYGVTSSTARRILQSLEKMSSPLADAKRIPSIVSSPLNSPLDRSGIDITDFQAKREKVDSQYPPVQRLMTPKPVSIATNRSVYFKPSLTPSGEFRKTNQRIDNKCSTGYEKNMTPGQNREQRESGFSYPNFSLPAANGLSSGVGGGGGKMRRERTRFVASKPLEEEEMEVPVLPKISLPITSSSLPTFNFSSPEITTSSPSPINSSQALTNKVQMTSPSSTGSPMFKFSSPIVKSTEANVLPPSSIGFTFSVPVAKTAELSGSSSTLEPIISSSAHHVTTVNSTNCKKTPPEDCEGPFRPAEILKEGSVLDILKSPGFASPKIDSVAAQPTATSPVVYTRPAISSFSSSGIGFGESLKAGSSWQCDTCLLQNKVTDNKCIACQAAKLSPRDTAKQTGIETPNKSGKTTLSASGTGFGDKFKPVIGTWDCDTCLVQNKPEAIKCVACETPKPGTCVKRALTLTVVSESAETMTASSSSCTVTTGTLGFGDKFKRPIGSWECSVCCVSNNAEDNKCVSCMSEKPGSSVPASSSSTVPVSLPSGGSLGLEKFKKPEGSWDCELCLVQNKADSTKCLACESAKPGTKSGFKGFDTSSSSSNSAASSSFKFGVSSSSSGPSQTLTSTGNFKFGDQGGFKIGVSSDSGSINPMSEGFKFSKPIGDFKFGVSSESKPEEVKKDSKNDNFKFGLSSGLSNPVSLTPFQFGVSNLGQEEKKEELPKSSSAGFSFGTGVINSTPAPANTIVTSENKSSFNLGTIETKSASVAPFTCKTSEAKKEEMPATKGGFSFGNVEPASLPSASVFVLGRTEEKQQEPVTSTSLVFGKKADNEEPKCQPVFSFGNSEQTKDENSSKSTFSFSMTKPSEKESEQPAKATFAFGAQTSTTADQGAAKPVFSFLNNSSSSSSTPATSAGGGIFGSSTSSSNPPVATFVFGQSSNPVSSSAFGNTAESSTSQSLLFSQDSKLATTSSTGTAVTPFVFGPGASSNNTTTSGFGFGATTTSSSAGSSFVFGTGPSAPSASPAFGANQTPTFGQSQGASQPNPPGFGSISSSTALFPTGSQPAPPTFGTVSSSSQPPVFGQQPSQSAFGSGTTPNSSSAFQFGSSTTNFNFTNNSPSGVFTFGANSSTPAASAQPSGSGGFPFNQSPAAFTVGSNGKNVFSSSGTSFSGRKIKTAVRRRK
UniProt P13674: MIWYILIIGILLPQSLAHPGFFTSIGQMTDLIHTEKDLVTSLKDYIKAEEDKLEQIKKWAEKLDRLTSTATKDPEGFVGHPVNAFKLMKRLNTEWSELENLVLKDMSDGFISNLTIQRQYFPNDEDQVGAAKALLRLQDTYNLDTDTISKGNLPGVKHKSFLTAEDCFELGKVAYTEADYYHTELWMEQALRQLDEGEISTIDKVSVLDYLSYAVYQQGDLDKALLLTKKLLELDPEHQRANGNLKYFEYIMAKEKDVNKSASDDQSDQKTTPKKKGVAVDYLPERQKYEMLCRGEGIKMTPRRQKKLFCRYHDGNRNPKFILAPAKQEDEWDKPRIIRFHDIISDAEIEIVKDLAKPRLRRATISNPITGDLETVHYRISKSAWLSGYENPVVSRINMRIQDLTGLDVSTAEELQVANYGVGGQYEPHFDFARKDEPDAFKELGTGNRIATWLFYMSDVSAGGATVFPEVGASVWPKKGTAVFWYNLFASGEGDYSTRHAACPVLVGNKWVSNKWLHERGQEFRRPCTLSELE
UniProt Q32P28: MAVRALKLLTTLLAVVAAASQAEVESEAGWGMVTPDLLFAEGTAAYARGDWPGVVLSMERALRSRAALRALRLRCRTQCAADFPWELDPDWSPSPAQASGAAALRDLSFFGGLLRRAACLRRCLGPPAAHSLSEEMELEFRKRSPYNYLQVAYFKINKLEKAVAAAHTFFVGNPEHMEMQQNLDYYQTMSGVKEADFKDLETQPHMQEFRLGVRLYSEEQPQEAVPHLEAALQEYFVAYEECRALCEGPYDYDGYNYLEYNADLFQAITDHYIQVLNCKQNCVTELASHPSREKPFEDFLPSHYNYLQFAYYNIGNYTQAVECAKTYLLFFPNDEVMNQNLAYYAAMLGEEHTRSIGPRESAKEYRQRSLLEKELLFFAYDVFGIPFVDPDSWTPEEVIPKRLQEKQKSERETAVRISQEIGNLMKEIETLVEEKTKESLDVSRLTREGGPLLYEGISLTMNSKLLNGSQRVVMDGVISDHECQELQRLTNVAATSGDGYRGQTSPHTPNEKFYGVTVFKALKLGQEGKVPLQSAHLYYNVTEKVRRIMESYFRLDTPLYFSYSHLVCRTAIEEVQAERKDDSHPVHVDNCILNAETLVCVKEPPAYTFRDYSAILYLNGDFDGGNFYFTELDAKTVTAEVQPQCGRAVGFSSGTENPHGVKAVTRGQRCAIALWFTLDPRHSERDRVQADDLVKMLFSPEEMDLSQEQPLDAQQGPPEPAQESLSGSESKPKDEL
UniProt Q99567: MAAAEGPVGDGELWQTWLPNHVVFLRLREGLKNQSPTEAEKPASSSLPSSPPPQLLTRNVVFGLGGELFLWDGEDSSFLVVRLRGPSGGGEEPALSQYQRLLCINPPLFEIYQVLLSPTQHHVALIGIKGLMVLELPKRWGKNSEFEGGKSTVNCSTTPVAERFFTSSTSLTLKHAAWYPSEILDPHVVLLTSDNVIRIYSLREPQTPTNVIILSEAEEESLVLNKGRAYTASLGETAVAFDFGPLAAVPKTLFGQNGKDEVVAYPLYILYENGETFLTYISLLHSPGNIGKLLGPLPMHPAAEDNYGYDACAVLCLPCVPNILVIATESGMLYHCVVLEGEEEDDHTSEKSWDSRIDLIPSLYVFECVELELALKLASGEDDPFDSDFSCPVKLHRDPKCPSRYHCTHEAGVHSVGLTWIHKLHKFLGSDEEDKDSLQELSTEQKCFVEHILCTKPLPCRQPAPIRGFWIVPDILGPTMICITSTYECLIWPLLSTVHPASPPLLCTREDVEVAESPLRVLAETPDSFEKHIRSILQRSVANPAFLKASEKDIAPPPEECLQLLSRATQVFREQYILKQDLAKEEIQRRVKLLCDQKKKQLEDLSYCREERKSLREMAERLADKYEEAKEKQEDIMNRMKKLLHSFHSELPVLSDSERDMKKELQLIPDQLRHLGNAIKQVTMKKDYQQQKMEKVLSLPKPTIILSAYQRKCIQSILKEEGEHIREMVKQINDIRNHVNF
UniProt Q92882: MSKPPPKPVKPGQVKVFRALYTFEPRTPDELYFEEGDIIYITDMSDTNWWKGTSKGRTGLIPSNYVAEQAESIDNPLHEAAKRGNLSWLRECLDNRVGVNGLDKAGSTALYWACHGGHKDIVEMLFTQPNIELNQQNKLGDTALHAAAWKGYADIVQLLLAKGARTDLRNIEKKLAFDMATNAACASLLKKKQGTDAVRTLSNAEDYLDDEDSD
UniProt O43482, whole entry, looked up: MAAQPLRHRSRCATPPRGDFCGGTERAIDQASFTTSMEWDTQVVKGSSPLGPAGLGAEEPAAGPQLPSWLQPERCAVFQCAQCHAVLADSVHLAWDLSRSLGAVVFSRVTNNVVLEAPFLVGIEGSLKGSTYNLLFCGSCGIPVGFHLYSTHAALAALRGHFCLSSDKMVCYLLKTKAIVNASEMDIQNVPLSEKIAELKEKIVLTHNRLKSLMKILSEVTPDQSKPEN
UniProt Q6PK18: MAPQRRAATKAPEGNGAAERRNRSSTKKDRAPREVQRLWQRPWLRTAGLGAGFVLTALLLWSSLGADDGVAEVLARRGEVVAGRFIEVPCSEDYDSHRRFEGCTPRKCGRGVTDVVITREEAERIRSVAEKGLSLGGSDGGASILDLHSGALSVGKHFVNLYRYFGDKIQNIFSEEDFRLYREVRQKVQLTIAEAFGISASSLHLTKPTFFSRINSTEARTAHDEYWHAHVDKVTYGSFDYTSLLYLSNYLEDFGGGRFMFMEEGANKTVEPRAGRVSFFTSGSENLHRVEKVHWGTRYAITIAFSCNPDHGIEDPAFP
UniProt Q8TB37: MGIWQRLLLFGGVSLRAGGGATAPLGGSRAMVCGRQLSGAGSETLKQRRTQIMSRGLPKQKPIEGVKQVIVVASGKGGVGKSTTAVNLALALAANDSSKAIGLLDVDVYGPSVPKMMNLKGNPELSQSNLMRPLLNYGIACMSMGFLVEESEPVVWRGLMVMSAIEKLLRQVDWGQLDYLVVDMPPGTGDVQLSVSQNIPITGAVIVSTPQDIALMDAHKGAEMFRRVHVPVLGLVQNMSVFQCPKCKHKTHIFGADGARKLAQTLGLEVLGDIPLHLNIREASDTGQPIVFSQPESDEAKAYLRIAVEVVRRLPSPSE
UniProt Q9H857: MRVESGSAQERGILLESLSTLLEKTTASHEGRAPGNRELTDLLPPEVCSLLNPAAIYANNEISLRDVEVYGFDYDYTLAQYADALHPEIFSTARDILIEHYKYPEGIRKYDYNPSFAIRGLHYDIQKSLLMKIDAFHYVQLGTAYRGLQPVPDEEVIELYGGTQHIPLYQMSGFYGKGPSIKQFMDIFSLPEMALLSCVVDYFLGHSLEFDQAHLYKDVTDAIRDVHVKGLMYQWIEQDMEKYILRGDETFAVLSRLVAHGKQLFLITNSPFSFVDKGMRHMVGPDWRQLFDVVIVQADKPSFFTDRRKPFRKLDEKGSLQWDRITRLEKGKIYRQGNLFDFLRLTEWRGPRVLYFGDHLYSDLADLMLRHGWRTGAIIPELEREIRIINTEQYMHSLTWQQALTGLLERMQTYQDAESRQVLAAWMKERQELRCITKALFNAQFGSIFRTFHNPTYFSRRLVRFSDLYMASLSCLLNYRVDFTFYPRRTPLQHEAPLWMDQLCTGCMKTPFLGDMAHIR

compound: C[C@H](C1=CC=C(C=C1)C(=O)NC2=C3C=CNC3=NC=C2)N; experiment: log2 fold change, soluble protein after heating vs DMSO (PISA); higher = thermal stabilisation; K562 cells, 10 uM, 30 min; active = over 0.2 and 3.5 SD of the protein, either way, in both replicates (recomputed)
How it was run: (§1)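 For each measurement, 10 μM compound was applied for 30 min to K562 cells at 2×10^6 cells/mL. Aliquots were heated for 3 min across 48°C-58°C, pooled, and extracted in PBS with 0.5% NP-40 at 4°C; the supernatant after 21,000xg for 90 min was soluble protein. This was quantified by TMTpro 16plex LC-MS/MS with channel sums equalised, and thermal stability was reported relative to control samples from duplicates, on a log2 fold-change scale.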

log2 fold change, inactive:
NT5C2 (UniProt P49902) -0.031, ORC4 (UniProt O43929) -0.035, NUDT16L1 (UniProt Q9BRJ7) -0.037, OS9 (UniProt Q13438) 0.068, NUDT19 (UniProt A8MXV4) -0.093, PABPC1 (UniProt P11940) 0.082, NT5DC3 (UniProt Q86UY8) -0.038, NUP37 (UniProt Q8NFH4) -0.125, OPTN (UniProt Q96CV9) -0.068, NUP43 (UniProt Q8NFH3) -0.203, OTUD7B (UniProt Q6GQQ9) 0, NSUN6 (UniProt Q8TEA1) -0.022, NUP153 (UniProt P49790) -0.012, P4HA1 (UniProt P13674) 0.179, OTUB1 (UniProt Q96FW1) -0.075, P3H1 (UniProt Q32P28) 0.176, NUP88 (UniProt Q99567) 0.101, OSTF1 (UniProt Q92882) 0.023, NUDT4 (UniProt Q9NZJ9) -0.072, NUSAP1 (UniProt Q9BXS6) 0.271, OIP5 (UniProt O43482) -0.109, OLA1 (UniProt Q9NTK5) -0.058, NUB1 (UniProt Q9Y5A7) 0.225, NUBP2 (UniProt Q9Y5Y2) -0.013, OGFOD3 isoform 2 (UniProt Q6PK18) 0.078, NUS1 (UniProt Q96E22) 0.012, NUBPL (UniProt Q8TB37) 0.048, NUP42 (UniProt O15504) 0.415, OGDH (UniProt Q02218) 0.126, P4HA1 isoform 2 (UniProt P13674) 0.154, NT5DC2 isoform 2 (UniProt Q9H857) -0.081, NUTF2 (UniProt P61970) -0.142

compound: C[C@H](Nc1ncnc2nc[nH]c12)c1cc2cccc(Cl)c2c(=O)n1-c1ccccc1 [duvelisib]; experiment: as above
How it was run: as §1

log2 fold change, inactive:
NT5C2 (UniProt P49902) 0.027, ORC4 (UniProt O43929) -0.012, NUDT16L1 (UniProt Q9BRJ7) 0.025, OS9 (UniProt Q13438) -0.008, NUDT19 (UniProt A8MXV4) 0.066, PABPC1 (UniProt P11940) -0.111, NT5DC3 (UniProt Q86UY8) 0.095, NUP37 (UniProt Q8NFH4) 0.035, OPTN (UniProt Q96CV9) 0.082, NUP43 (UniProt Q8NFH3) -0.04, OTUD7B (UniProt Q6GQQ9) 0.147, NSUN6 (UniProt Q8TEA1) 0.073, NUP153 (UniProt P49790) -0.041, P4HA1 (UniProt P13674) -0.045, OTUB1 (UniProt Q96FW1) 0.007, P3H1 (UniProt Q32P28) -0.052, NUP88 (UniProt Q99567) -0.067, OSTF1 (UniProt Q92882) -0.079, NUDT4 (UniProt Q9NZJ9) 0.007, NUSAP1 (UniProt Q9BXS6) -0.047, OIP5 (UniProt O43482) 0.027, OLA1 (UniProt Q9NTK5) 0.046, NUB1 (UniProt Q9Y5A7) -0.015, NUBP2 (UniProt Q9Y5Y2) 0.048, OGFOD3 isoform 2 (UniProt Q6PK18) 0.025, NUS1 (UniProt Q96E22) 0.077, NUBPL (UniProt Q8TB37) -0.046, NUP42 (UniProt O15504) -0.141, OGDH (UniProt Q02218) -0.035, P4HA1 isoform 2 (UniProt P13674) 0.032, NT5DC2 isoform 2 (UniProt Q9H857) 0.022, NUTF2 (UniProt P61970) 0.162

compound: Cc1cc(Nc2cc(CN3CCOCC3)c3nc(C)c(Cc4ccc(Cl)cc4F)n3n2)n[nH]1 [gandotinib]; experiment: as above
How it was run: as §1

log2 fold change, inactive:
NT5C2 (UniProt P49902) 0.078, ORC4 (UniProt O43929) -0.121, NUDT16L1 (UniProt Q9BRJ7) -0.158, OS9 (UniProt Q13438) 0.003, NUDT19 (UniProt A8MXV4) 0.058, PABPC1 (UniProt P11940) 0.015, NT5DC3 (UniProt Q86UY8) 0.02, NUP37 (UniProt Q8NFH4) -0.018, OPTN (UniProt Q96CV9) 0.149, NUP43 (UniProt Q8NFH3) -0.005, OTUD7B (UniProt Q6GQQ9) 0.062, NSUN6 (UniProt Q8TEA1) -0.036, NUP153 (UniProt P49790) 0.083, P4HA1 (UniProt P13674) 0.1, OTUB1 (UniProt Q96FW1) -0.086, P3H1 (UniProt Q32P28) 0.128, NUP88 (UniProt Q99567) -0.007, OSTF1 (UniProt Q92882) 0.02, NUDT4 (UniProt Q9NZJ9) -0.055, NUSAP1 (UniProt Q9BXS6) 0.071, OIP5 (UniProt O43482) 0.04, OLA1 (UniProt Q9NTK5) -0.027, NUB1 (UniProt Q9Y5A7) -0.072, NUBP2 (UniProt Q9Y5Y2) 0.089, OGFOD3 isoform 2 (UniProt Q6PK18) 0, NUS1 (UniProt Q96E22) -0.058, NUBPL (UniProt Q8TB37) 0.042, NUP42 (UniProt O15504) 0.304, OGDH (UniProt Q02218) 0.008, P4HA1 isoform 2 (UniProt P13674) 0.136, NT5DC2 isoform 2 (UniProt Q9H857) 0.04, NUTF2 (UniProt P61970) 0.161
